Measurements as given in patent US20220242927A1.
Results are given in words; binding and its absence hold for the method and conditions named. Some binding calls cover weakened binding; strength is not graded here. Tags and fused reporters may be left off the sequences shown.

Amino acid sequences for entries named in this document (tags omitted). Residues count along the entry.
UniProt P22004, residues 382-513: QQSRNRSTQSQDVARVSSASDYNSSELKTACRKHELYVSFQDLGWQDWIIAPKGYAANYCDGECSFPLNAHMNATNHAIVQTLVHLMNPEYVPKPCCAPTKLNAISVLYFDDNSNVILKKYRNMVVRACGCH

Assays:
BMP6 [1] = molecular target: BMP6 (UniProt P22004); assay: SPR (Biacore), legend of FIG. 6
GDF11 [2] = molecular target: T1, GDF11 (UniProt O95390); assay: SPR (Biacore), legend of FIG. 6
T1 sequence (looked up): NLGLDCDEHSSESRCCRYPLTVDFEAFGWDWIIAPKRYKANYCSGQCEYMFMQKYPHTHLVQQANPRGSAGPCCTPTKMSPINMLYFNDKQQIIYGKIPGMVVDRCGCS

GDF8 [3] = molecular target: T2, GDF8 (UniProt O14793); assay: SPR (Biacore), legend of FIG. 6
T2 sequence (looked up): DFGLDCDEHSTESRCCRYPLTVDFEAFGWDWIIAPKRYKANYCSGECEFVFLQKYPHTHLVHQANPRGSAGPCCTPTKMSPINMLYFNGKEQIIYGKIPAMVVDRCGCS

BMP6 [4] = molecular target: BMP6 (UniProt P22004); assay: SPR (Biacore), comparative binding data
GDF11 [5] = molecular target: T1, GDF11; assay: SPR (Biacore), comparative binding data
GDF8 [6] = molecular target: T2, GDF8; assay: SPR (Biacore), comparative binding data
Activin B = molecular target: T3, Activin B (UniProt P09529); assay: SPR (Biacore), binding data recalled in the reporter assay text
T3 sequence (looked up): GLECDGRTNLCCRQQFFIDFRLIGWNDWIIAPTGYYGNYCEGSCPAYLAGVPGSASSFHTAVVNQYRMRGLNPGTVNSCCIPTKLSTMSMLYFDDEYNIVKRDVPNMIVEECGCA

GDF11 [7] = molecular target: T1, GDF11; assay: as above
GDF8 [8] = molecular target: T2, GDF8; assay: as above

Measured: binding

B1: ActRIIB-Fc homodimer (Fc fusion, UniProt Q13705 20-134, looked up, not shown: a dimerising Fc or GST)
chain: GRGEAETRECIYYNANWELERTNQSGLERCEGEQDKRLHCYASWRNSSGTIELVKKGCWLDDFNCYDRQECVATEENPQVYFCCCEGNFCNERFTHLPEAGGPEVTYEPPPTAPT
binds: all assays above
